# The other results are listed elsewhere or left out.
# Chains of the proteins cited; added tags and fusions are not shown. Lines headed by an entry give the natural chain unless they say otherwise; changes in a name come on top.
# UniProt Q9BTE1, whole entry, looked up: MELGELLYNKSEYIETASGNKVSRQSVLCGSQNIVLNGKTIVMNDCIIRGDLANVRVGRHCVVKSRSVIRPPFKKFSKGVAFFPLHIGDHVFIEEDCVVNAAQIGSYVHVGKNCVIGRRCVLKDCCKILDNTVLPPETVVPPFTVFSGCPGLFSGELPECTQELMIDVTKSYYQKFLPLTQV
# UniProt Q5T1V6: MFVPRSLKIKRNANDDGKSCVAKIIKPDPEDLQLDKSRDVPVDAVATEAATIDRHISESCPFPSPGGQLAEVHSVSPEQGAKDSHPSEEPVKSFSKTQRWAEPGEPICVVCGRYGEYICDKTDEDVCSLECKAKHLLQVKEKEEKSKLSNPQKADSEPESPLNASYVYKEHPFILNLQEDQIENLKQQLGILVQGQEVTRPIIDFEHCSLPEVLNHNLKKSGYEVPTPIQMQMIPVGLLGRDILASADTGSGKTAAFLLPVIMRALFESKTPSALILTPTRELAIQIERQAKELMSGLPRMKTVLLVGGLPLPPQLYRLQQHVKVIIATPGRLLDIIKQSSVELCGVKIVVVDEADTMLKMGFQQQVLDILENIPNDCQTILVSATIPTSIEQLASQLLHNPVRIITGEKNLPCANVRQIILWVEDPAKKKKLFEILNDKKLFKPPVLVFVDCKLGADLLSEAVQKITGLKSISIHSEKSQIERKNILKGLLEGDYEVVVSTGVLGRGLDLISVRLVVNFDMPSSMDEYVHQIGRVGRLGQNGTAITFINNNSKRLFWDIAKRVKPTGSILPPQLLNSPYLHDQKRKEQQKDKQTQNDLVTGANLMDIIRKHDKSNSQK
# UniProt Q16850: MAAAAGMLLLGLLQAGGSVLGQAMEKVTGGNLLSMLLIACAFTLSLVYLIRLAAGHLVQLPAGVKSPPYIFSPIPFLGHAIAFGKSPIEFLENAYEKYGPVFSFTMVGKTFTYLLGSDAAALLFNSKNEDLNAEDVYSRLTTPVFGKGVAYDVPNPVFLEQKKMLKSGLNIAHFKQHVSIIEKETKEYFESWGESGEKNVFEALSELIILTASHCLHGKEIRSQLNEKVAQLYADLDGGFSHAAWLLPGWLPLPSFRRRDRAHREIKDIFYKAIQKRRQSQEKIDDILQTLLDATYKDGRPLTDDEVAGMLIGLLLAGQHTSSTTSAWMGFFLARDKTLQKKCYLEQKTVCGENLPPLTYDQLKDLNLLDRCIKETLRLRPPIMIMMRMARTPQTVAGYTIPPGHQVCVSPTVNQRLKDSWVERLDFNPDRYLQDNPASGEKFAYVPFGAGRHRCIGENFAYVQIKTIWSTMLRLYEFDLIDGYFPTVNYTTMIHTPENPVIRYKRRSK
# UniProt P0CG12: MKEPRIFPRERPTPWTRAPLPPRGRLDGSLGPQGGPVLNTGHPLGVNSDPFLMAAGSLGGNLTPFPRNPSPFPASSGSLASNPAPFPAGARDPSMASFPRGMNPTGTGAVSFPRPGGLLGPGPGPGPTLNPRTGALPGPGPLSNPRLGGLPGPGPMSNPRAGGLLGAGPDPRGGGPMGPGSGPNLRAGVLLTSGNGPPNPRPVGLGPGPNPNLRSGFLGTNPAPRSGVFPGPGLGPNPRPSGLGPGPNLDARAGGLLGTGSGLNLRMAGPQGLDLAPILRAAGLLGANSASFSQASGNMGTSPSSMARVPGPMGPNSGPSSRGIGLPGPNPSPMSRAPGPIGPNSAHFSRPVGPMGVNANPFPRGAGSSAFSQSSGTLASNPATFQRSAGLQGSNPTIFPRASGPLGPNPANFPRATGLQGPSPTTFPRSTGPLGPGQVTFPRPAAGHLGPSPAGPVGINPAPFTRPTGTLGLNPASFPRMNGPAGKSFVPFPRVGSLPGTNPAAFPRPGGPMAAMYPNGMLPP
# UniProt P27707: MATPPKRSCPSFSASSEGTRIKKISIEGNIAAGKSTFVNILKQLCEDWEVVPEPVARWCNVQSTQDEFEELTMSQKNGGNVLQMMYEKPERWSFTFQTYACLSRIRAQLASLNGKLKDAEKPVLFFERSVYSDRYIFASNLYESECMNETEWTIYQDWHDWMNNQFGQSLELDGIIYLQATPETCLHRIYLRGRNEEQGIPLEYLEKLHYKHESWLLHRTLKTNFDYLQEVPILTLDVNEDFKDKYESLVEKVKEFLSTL
# UniProt Q9UK59: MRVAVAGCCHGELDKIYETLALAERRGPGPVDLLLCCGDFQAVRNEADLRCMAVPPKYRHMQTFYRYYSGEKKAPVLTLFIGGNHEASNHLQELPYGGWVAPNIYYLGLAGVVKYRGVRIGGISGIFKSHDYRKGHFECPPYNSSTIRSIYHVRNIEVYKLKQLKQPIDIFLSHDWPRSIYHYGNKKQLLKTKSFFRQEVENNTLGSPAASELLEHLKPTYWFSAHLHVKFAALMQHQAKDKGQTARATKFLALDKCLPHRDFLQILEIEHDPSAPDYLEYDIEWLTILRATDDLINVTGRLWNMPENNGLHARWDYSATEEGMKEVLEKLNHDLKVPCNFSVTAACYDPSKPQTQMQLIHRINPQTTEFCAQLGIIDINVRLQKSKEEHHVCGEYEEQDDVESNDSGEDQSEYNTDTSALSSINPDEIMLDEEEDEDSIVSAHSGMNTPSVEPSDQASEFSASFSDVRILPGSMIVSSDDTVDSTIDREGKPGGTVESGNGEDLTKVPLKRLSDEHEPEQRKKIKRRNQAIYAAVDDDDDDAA
# UniProt Q6PI48: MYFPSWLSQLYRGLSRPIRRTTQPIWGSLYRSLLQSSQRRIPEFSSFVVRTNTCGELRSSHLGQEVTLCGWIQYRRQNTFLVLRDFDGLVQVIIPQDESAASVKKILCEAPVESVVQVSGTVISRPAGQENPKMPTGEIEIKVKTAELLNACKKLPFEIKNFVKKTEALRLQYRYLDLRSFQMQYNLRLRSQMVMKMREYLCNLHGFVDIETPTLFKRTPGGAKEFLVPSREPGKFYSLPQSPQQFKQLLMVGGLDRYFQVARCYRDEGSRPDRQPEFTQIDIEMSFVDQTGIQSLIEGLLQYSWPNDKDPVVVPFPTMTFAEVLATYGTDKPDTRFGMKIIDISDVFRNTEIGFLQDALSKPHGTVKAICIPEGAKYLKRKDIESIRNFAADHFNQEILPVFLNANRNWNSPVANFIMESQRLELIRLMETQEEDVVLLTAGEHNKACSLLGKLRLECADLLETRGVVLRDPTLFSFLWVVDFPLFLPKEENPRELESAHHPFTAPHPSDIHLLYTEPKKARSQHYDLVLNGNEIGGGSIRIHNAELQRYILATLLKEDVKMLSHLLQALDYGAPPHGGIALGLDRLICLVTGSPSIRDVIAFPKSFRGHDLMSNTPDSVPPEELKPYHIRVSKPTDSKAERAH
# UniProt Q5TAQ9: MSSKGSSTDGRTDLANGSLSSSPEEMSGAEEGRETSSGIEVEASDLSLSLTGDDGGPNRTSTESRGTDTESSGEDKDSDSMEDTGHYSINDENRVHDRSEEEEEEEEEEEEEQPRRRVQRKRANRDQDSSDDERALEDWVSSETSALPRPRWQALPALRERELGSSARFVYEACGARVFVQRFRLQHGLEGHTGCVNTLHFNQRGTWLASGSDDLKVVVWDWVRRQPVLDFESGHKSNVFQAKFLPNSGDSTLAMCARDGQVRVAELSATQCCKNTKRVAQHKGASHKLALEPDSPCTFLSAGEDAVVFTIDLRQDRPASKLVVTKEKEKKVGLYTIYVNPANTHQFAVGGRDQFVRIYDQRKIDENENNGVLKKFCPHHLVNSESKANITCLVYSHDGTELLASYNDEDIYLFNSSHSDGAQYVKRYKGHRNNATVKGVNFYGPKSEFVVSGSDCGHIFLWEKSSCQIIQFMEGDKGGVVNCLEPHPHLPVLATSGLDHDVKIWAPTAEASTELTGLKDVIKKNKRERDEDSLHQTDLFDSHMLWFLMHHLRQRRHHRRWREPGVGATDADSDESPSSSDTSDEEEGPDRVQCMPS
# UniProt Q6P3S1: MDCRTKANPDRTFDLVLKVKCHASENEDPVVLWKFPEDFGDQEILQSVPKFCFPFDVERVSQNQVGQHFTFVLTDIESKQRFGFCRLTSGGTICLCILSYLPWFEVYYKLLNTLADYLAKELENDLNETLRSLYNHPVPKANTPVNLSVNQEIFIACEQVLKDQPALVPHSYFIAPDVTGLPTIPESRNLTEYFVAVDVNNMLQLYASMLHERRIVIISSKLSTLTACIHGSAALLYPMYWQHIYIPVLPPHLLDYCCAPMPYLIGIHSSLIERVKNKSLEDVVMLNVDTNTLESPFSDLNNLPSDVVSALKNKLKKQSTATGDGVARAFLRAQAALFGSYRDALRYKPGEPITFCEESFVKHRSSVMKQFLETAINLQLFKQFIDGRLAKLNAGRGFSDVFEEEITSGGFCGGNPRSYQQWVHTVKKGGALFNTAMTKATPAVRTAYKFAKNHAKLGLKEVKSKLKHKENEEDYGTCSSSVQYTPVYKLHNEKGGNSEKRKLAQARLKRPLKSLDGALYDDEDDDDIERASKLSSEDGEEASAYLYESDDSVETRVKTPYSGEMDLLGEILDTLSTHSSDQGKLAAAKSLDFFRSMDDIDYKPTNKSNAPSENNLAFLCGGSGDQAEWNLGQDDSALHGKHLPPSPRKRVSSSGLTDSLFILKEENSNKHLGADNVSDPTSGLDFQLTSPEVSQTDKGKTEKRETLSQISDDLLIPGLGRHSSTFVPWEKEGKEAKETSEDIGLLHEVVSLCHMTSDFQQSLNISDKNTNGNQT
# UniProt P53355: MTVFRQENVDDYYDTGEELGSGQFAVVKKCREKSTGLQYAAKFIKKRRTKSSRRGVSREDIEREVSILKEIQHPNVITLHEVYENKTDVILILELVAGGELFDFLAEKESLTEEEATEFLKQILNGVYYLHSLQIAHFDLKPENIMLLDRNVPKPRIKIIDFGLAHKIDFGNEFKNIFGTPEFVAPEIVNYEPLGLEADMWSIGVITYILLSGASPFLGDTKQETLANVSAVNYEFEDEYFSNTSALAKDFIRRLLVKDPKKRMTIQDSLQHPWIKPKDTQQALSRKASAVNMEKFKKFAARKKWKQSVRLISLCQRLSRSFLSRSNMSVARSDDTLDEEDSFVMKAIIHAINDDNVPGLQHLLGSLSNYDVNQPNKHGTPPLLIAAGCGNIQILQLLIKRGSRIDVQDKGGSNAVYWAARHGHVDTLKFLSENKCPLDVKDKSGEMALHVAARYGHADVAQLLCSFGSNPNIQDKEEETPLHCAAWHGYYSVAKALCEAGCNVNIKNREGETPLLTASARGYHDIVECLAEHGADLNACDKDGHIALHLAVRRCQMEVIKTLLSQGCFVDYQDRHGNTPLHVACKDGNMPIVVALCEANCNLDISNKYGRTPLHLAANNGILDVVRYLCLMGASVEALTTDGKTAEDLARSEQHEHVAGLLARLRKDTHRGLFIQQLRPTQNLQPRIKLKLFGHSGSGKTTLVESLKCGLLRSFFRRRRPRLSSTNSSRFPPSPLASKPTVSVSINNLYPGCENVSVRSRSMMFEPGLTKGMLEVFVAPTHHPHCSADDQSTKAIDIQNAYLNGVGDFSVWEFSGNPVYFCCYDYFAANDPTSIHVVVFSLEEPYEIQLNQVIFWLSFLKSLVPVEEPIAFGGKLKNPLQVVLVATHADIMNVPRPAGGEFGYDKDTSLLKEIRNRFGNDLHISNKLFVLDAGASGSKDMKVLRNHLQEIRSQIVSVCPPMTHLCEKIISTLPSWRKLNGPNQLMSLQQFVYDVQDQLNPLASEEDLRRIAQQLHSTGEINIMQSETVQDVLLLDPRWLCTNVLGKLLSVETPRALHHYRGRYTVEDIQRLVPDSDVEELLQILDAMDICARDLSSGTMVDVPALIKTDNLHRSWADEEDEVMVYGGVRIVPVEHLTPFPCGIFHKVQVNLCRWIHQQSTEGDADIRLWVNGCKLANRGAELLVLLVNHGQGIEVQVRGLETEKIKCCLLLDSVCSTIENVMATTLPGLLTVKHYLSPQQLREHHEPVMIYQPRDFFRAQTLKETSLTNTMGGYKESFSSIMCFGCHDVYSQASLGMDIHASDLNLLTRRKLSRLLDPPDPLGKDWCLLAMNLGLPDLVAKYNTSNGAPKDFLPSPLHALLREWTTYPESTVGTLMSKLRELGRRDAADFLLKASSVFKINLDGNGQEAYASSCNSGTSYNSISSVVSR
# UniProt P26196: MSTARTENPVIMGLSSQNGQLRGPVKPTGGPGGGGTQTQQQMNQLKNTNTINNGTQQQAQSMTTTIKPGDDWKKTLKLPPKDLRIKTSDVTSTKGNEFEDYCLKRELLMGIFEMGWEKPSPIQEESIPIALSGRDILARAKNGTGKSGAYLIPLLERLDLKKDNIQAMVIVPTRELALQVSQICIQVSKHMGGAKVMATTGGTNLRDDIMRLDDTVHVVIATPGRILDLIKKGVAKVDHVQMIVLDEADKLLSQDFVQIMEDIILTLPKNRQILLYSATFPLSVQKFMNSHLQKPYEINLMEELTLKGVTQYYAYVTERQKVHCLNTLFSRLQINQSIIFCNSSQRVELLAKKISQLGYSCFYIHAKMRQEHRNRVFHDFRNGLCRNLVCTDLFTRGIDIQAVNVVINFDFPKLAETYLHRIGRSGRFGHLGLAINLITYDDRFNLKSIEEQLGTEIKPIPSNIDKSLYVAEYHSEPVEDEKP
# Compound: O=C1NC(=O)C(c2cnc3ccccn23)=C1c1cn2c3c(cc(F)cc13)CN(C(=O)N1CCCCC1)CC2
# Experiment: log2 fold change, soluble protein after heating vs DMSO (PISA); higher = thermal stabilisation; K562 lysate, 10 uM; active = over 0.2 and 3.5 SD of the protein, either way, in both replicates (recomputed)
# Outline: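 Soluble protein was defined as the supernatant remaining after 21,000xg for 90 min, following pooling of heated aliquots and adjustment to 0.5% NP-40 at 4°C. Before that, crude K562 extract at 1 mg/mL protein in PBS pH 7.4 with 1 mM MgCl2 was treated with 10 μM compound for 30 min and heated for 3 min across 48°C-58°C. Quantification used TMTpro 16plex LC-MS/MS with channel sums equalised, and values are log-two fold changes in thermal stability relative to solvent controls from duplicates.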
row,Target,log2 fold change
1,DENND4C (UniProt Q5VZ89),inactive: -0.015
2,DEK (UniProt P35659),inactive: 0.026
3,DBN1 (UniProt Q16643),inactive: 0.012
4,DDX21 (UniProt Q9NR30),inactive: 0.036
5,DCTN5 (UniProt Q9BTE1),inactive: -0.014
6,D2HGDH (UniProt Q8N465),inactive: -0.016
7,DDX39B isoform 2 (UniProt Q13838),inactive: -0.02
8,DFFA isoform 2 (UniProt O00273),inactive: -0.025
9,DDB2 (UniProt Q92466),inactive: -0.002
10,DDX59 (UniProt Q5T1V6),inactive: 0.001
11,CYP51A1 (UniProt Q16850),active: 0.864
12,DEF6 (UniProt Q9H4E7),inactive: -0.045
13,DAD1 (UniProt P61803),inactive: 0.024
14,DERPC (UniProt P0CG12),inactive: 0
15,DDX39A (UniProt O00148),inactive: 0.036
16,DCTN1 (UniProt Q14203),inactive: 0.012

row,Target,log2 fold change
1,DDA1 (UniProt Q9BW61),inactive: 0.05
2,DCK (UniProt P27707),inactive: 0.036
3,DDT (UniProt P30046),inactive: 0.042
4,DERL2 (UniProt Q9GZP9),inactive: 0.052
5,DBR1 (UniProt Q9UK59),inactive: -0.041
6,DAGLB (UniProt Q8NCG7),inactive: -0.027
7,DARS2 (UniProt Q6PI48),inactive: 0.002
8,DCP1A (UniProt Q9NPI6),inactive: 0.011
9,DCAF8 (UniProt Q5TAQ9),inactive: -0.019
10,DDI2 isoform 3 (UniProt Q5TDH0),inactive: 0.006
11,DENND1B (UniProt Q6P3S1),inactive: -0.076
12,DDX1 (UniProt Q92499),inactive: 0
13,DAPK1 isoform 3 (UniProt P53355),inactive: 0.004
14,DERL1 (UniProt Q9BUN8),inactive: -0.006
15,DDX6 (UniProt P26196),inactive: -0.004
16,DENR (UniProt O43583),inactive: -0.009

# Some of the entries above, reformatted.
row	Target	log2 fold change
12	DDX1 (UniProt Q92499)	inactive: 0
13	DAPK1 isoform 3 (UniProt P53355)	inactive: 0.004

# From the supplement of paper PMC10849652
